# The other results are listed elsewhere or left out.
# B1: XTP3-B-MRH2 (Homo sapiens), Q96DZ1 (protein)
# chain: EFLSGSYCFRGGVGWWKYEFCYGKHVHQYHEDKDSGKTSVVVGTWNQEEHIEWAKKNTARAYHLQDDGTQTVRMVSHFYGNGDICDITDKPRQVTVKLKCKESDSPHAVTVYMLEPHSCQYILGVESPVICKILDTA
# Assays:
# Assay in all cases: glycan array binding signal (z-score within array); higher = stronger binding
# Conditions in all cases: glycan notation: IUPAC condensed, linker removed
# Gal6S(b1-4)Glc = target: Gal6S(b1-4)Glc
# Procedure, shortened: (§1)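 Columns mapping to the same glycan were averaged after glycan names were converted to IUPAC-condensed notation. The data come from 3228 arrays in the Consortium for Functional Glycomics database, limited to those with an available protein sequence. Binding is reported as a within-array Z-score averaged across arrays of one protein sequence and across linkers.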
# Gal6S(b1-4)Glc6S = target: Gal6S(b1-4)Glc6S
# Procedure, shortened: as §1
# Gal6S(b1-4)GlcNAc = target: Gal6S(b1-4)GlcNAc
# Procedure, shortened: as §1
# Gal6S(b1-4)GlcNAc6S = target: Gal6S(b1-4)GlcNAc6S
# Procedure, shortened: as §1
# GalNAc(a1-3)Gal = target: GalNAc(a1-3)Gal
# Procedure, shortened: as §1
# GalNAc(a1-3)GalNAc = target: GalNAc(a1-3)GalNAc
# Procedure, shortened: as §1
# [1] = target: GalNAc(a1-3)GalNAc(b1-3)Gal(a1-4)Gal(b1-4)Glc
# Procedure, shortened: as §1
# [2] = target: GalNAc(a1-3)GalNAc(b1-3)Gal(a1-4)Gal(b1-4)GlcNAc
# Procedure, shortened: as §1
# GalNAc(b1-3)Gal = target: GalNAc(b1-3)Gal
# Procedure, shortened: as §1
# [3] = target: GalNAc(b1-3)Gal(a1-4)Gal(b1-4)GlcNAc
# Procedure, shortened: as §1
# [4] = target: GalNAc(b1-3)Gal(a1-4)Gal(b1-4)GlcNAc(b1-3)Gal(b1-4)Glc
# Procedure, shortened: as §1
# [5] = target: GalNAc(b1-3)Gal(a1-6)Gal(b1-4)Glc
# Procedure, shortened: as §1
# GalNAc(b1-3)GalNAc = target: GalNAc(b1-3)GalNAc
# Procedure, shortened: as §1
# GalNAc(b1-3)GlcNAc = target: GalNAc(b1-3)GlcNAc
# Procedure, shortened: as §1
# GalNAc(b1-4)Gal(b1-4)Glc = target: GalNAc(b1-4)Gal(b1-4)Glc
# Procedure, shortened: as §1
# GalNAc(b1-4)GlcNAc = target: GalNAc(b1-4)GlcNAc
# Procedure, shortened: as §1
# [6] = target: GalNAc(b1-4)GlcNAc(b1-2)Man
# Procedure, shortened: as §1
# [7] = target: GalNAc(b1-4)GlcNAc(b1-2)Man(a1-3)[GalNAc(b1-4)GlcNAc(b1-2)Man(a1-6)]Man(b1-4)GlcNAc(b1-4)GlcNAc
# Procedure, shortened: as §1
# [8] = target: GalNAc(b1-4)GlcNAc(b1-3)GalNAc(b1-4)GlcNAc
# Procedure, shortened: as §1
# GalNAc(b1-4)GlcNAc6S = target: GalNAc(b1-4)GlcNAc6S
# Procedure, shortened: as §1
# GalNAc(b1-6)GalNAc = target: GalNAc(b1-6)GalNAc
# Procedure, shortened: as §1
# GalNAc3S(b1-4)GlcNAc = target: GalNAc3S(b1-4)GlcNAc
# Procedure, shortened: as §1
# GalNAc3S(b1-4)GlcNAc3S = target: GalNAc3S(b1-4)GlcNAc3S
# Procedure, shortened: as §1
# [9] = target: GalNAc3S(b1-4)[Fuc(a1-3)]GlcNAc
# Procedure, shortened: as §1
# GalNAc4S6S(b1-4)GlcNAc = target: GalNAc4S6S(b1-4)GlcNAc
# Procedure, shortened: as §1
# GalNAc6S(b1-4)GlcNAc = target: GalNAc6S(b1-4)GlcNAc
# Procedure, shortened: as §1
# Glc(a1-4)Glc = target: Glc(a1-4)Glc
# Procedure, shortened: as §1
# [10] = target: Glc(a1-4)Glc(a1-4)Glc(a1-4)Glc
# Procedure, shortened: as §1
# Glc(a1-6)Glc(a1-6)Glc = target: Glc(a1-6)Glc(a1-6)Glc
# Procedure, shortened: as §1
# [11] = target: Glc(a1-6)Glc(a1-6)Glc(a1-6)Glc
# Procedure, shortened: as §1
# Glc(b1-4)Glc = target: Glc(b1-4)Glc
# Procedure, shortened: as §1
# Glc(b1-6)Glc = target: Glc(b1-6)Glc
# Procedure, shortened: as §1
# GlcA(b1-3)Gal = target: GlcA(b1-3)Gal
# Procedure, shortened: as §1
# GlcA(b1-3)GlcNAc = target: GlcA(b1-3)GlcNAc
# Procedure, shortened: as §1
# GlcA(b1-6)Gal = target: GlcA(b1-6)Gal
# Procedure, shortened: as §1
# [12] = target: GlcA3S(b1-3)Gal(b1-4)GlcNAc(b1-2)Man
# Procedure, shortened: as §1
# [13] = target: GlcA3S(b1-3)Gal(b1-4)GlcNAc(b1-3)Gal(b1-4)Glc
# Procedure, shortened: as §1
# [14] = target: GlcNAc(a1-3)Gal(b1-4)GlcNAc
# Procedure, shortened: as §1
# [15] = target: GlcNAc(a1-4)Gal(b1-3)GlcNAc
# Procedure, shortened: as §1
# [16] = target: GlcNAc(a1-4)Gal(b1-4)GalNAc
# Procedure, shortened: as §1
# [17] = target: GlcNAc(a1-4)Gal(b1-4)GlcNAc
# Procedure, shortened: as §1
# [18] = target: GlcNAc(a1-4)Gal(b1-4)GlcNAc(b1-3)Gal(b1-4)Glc
# Procedure, shortened: as §1
# [19] = target: GlcNAc(a1-4)Gal(b1-4)GlcNAc(b1-3)Gal(b1-4)GlcNAc
# Procedure, shortened: as §1
# [20] = target: GlcNAc(a1-4)Gal(b1-4)GlcNAc(b1-3)Gal(b1-4)GlcNAc(b1-3)Gal(b1-4)GlcNAc
# Procedure, shortened: as §1
# [21] = target: GlcNAc(a1-4)Gal(b1-4)GlcNAc(b1-3)Gal(b1-4)[Fuc(a1-3)]GlcNAc(b1-3)Gal(b1-4)[Fuc(a1-3)]GlcNAc
# Procedure, shortened: as §1
binder,measurement,setting,value
B1,glycan array binding signal (z-score),Gal6S(b1-4)Glc,0.215
same,glycan array binding signal (z-score),Gal6S(b1-4)Glc6S,0.292
same,glycan array binding signal (z-score),Gal6S(b1-4)GlcNAc,-1.65
same,glycan array binding signal (z-score),Gal6S(b1-4)GlcNAc6S,-0.36
same,glycan array binding signal (z-score),GalNAc(a1-3)Gal,-0.916
same,glycan array binding signal (z-score),GalNAc(a1-3)GalNAc,5.08
same,glycan array binding signal (z-score),[1],-1.04
same,glycan array binding signal (z-score),[2],0.574
same,glycan array binding signal (z-score),GalNAc(b1-3)Gal,0.566
same,glycan array binding signal (z-score),[3],1.17
same,glycan array binding signal (z-score),[4],-0.403
same,glycan array binding signal (z-score),[5],0.756
same,glycan array binding signal (z-score),GalNAc(b1-3)GalNAc,-1.03
same,glycan array binding signal (z-score),GalNAc(b1-3)GlcNAc,2.05
same,glycan array binding signal (z-score),GalNAc(b1-4)Gal(b1-4)Glc,-0.842
same,glycan array binding signal (z-score),GalNAc(b1-4)GlcNAc,2.09
same,glycan array binding signal (z-score),[6],-0.092
same,glycan array binding signal (z-score),[7],-0.025
same,glycan array binding signal (z-score),[8],0.458
same,glycan array binding signal (z-score),GalNAc(b1-4)GlcNAc6S,-0.644
same,glycan array binding signal (z-score),GalNAc(b1-6)GalNAc,-1.29
same,glycan array binding signal (z-score),GalNAc3S(b1-4)GlcNAc,-0.191
same,glycan array binding signal (z-score),GalNAc3S(b1-4)GlcNAc3S,-0.591
same,glycan array binding signal (z-score),[9],0.236
same,glycan array binding signal (z-score),GalNAc4S6S(b1-4)GlcNAc,-0.621
same,glycan array binding signal (z-score),GalNAc6S(b1-4)GlcNAc,0.681
same,glycan array binding signal (z-score),Glc(a1-4)Glc,0.45
same,glycan array binding signal (z-score),[10],0.461
same,glycan array binding signal (z-score),Glc(a1-6)Glc(a1-6)Glc,0.709
same,glycan array binding signal (z-score),[11],0.032
same,glycan array binding signal (z-score),Glc(b1-4)Glc,-1.04
same,glycan array binding signal (z-score),Glc(b1-6)Glc,-0.464
same,glycan array binding signal (z-score),GlcA(b1-3)Gal,-1.48
same,glycan array binding signal (z-score),GlcA(b1-3)GlcNAc,-1.71
same,glycan array binding signal (z-score),GlcA(b1-6)Gal,-0.007
same,glycan array binding signal (z-score),[12],-0.557
same,glycan array binding signal (z-score),[13],-0.437
same,glycan array binding signal (z-score),[14],-0.785
same,glycan array binding signal (z-score),[15],-1.25
same,glycan array binding signal (z-score),[16],-1.12
same,glycan array binding signal (z-score),[17],0.381
same,glycan array binding signal (z-score),[18],-1.28
same,glycan array binding signal (z-score),[19],-0.157
same,glycan array binding signal (z-score),[20],0.75
same,glycan array binding signal (z-score),[21],0.946

# Two entries from above in a different format:
binder	measurement	setting	value
B1	glycan array binding signal (z-score)	[12]	-0.557
same	glycan array binding signal (z-score)	[13]	-0.437

# Reference: the supplement of paper PMC8728848
